Laboratory results reported in the supplement of paper PMC9233669.
This sample is rich in variants without activity.

Tests used:
biotinyl-Leu-oxazolone = assay: self-aminoacylation, catalytic enhancement (BLO) (fold over background); higher = more active; k-Seq, kA / k0A0; sequences stand for … in GGGAAUGGAUCCACAUCUACGAAUUC…UUCACUGCAGACUUGACGAAGCUG
Summary of the method: (§1)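 Working in 50 μL HEPES/NaCl/KCl/MgCl2/CaCl2 buffer with 5% acetonitrile at pH 6.9–7.0, mutagenized RNA pools (0.43 μM; 21-nt variable region) were reacted with 2–1250 μM of each biotinyl-aminoacyl-oxazolone for 90 minutes at room temperature. Streptavidin capture followed, with quantification by triplicate qPCR and Illumina sequencing. Catalytic enhancement is reported as median kA over the uncatalyzed rate, the low-activity peak of a bimodal Gaussian fit to the data.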

biotinyl-Ile-oxazolone = assay: self-aminoacylation, catalytic enhancement (BIO) (fold over background); higher = more active; k-Seq, kA / k0A0; sequences stand for … in GGGAAUGGAUCCACAUCUACGAAUUC…UUCACUGCAGACUUGACGAAGCUG
Summary of the method: as §1

biotinyl-Phe-oxazolone = assay: self-aminoacylation, catalytic enhancement (BFO) (fold over background); higher = more active; k-Seq, kA / k0A0; sequences stand for … in GGGAAUGGAUCCACAUCUACGAAUUC…UUCACUGCAGACUUGACGAAGCUG
Summary of the method: as §1

biotinyl-Trp-oxazolone = assay: self-aminoacylation, catalytic enhancement (BWO) (fold over background); higher = more active; k-Seq, kA / k0A0; sequences stand for … in GGGAAUGGAUCCACAUCUACGAAUUC…UUCACUGCAGACUUGACGAAGCUG
Summary of the method: as §1

biotinyl-Val-oxazolone = assay: self-aminoacylation, catalytic enhancement (BVO) (fold over background); higher = more active; k-Seq, kA / k0A0; sequences stand for … in GGGAAUGGAUCCACAUCUACGAAUUC…UUCACUGCAGACUUGACGAAGCUG
Summary of the method: as §1

biotinyl-Met-oxazolone = assay: self-aminoacylation, catalytic enhancement (BMO) (fold over background); higher = more active; k-Seq, kA / k0A0; sequences stand for … in GGGAAUGGAUCCACAUCUACGAAUUC…UUCACUGCAGACUUGACGAAGCUG
Summary of the method: as §1

| Sequence | self-aminoacylation (biotinyl-Leu-oxazolone) | self-aminoacylation (biotinyl-Ile-oxazolone) | self-aminoacylation (biotinyl-Phe-oxazolone) | self-aminoacylation (biotinyl-Trp-oxazolone) | self-aminoacylation (biotinyl-Val-oxazolone) | self-aminoacylation (biotinyl-Met-oxazolone) |
| --- | --- | --- | --- | --- | --- | --- |
| AUUAACCUACGUCAUCGGGUG [Fam2.2 aminoacylation ribozyme variant] | 8.3 | 3.99 | 47.5 | 5.8 | 3.84 | 6.52 |
| AUUACACUGGUCAUCGAGAGA [Fam2.1 aminoacylation ribozyme variant] | 1.13 | 1.06 | 0.54 | 1.01 | 1.3 | 0.855 |
| AUUACCAUGGUCAUCGACUGA [Fam2.1 aminoacylation ribozyme variant] | 0.988 | 0.883 | 0.498 | 0.97 | 0.731 | 0.963 |
| AUUACCAUGGUCAUCGAGUUA [Fam2.1 aminoacylation ribozyme variant] | 0.836 | 1.17 | 0.747 | 0.506 | 1.21 | 1.02 |
| AUUACCAUGGUCCUCGAGUGA [Fam2.1 aminoacylation ribozyme variant] | 5.83 | 2.48 | 29.3 | 4.82 | 2.68 | 4.88 |
| AUUACCCAGGCCAUCGAGUGA [Fam2.1 aminoacylation ribozyme variant] | 2.69 | 1.85 | 11 | 1.61 | 1.92 | 2.52 |
| AUUACCCAGGUCAUCGAAUGA [Fam2.1 aminoacylation ribozyme variant] | 1.02 | 0.908 | 0.861 | 0.73 | 1.07 | 1.03 |
| AUUACCCAGGUCAUCGAGAGA [Fam2.1 aminoacylation ribozyme variant] | 0.841 | 0.939 | 0.893 | 0.784 | 1.07 | 0.852 |
| AUUACCCCGGUCAUCGGGUGA [Fam2.1 aminoacylation ribozyme variant] | 15.9 | 5.57 | 103 | 12.7 | 7.32 | 14.4 |
| AUUACCCGGGUCAUCGAUUGA [Fam2.1 aminoacylation ribozyme variant] | 1.09 | 1.14 | 1.14 | 1.57 | 0.962 | 0.871 |
| AUUACCCUAGUCAUCGAGAGA [Fam2.1 aminoacylation ribozyme variant] | 0.689 | 0.875 | 0.623 | 1.13 | 0.684 | 0.422 |
| AUUACCCUCGUCCUCGAGUGA [Fam2.1 aminoacylation ribozyme variant] | 5.49 | 2.48 | 34.7 | 6.18 | 2.4 | 4.67 |
| AUUACCCUGGACAUCGUGUGA [Fam2.1 aminoacylation ribozyme variant] | 2.45 | 1.39 | 10.9 | 2.5 | 1.44 | 2.41 |
| AUUACCCUGGUAAUCGAAUGA [Fam2.1 aminoacylation ribozyme variant] | 0.788 | 1 | 0.469 | 0.45 | 0.971 | 0.935 |
| AUUACCCUGGUAAUCGAGUGA [Fam2.1 aminoacylation ribozyme variant] | 8.46 | 3.7 | 54.5 | 9.96 | 3.82 | 8.63 |
| AUUACCCUGGUAAUCGAGUUA [Fam2.1 aminoacylation ribozyme variant] | 0.991 | 1.16 | 0.821 | 0.726 | 1.15 | 1.13 |
| AUUACCCUGGUCAACGAGCGA [Fam2.1 aminoacylation ribozyme variant] | 1.14 | 1.49 | 0.989 | 0.589 | 1.4 | 1.04 |
| AUUACCCUGGUCACCGAUUGA [Fam2.1 aminoacylation ribozyme variant] | 0.865 | 0.935 | 0.74 | 0.621 | 0.943 | 0.698 |
| AUUACCCUGGUCAUCGAAUCA [Fam2.1 aminoacylation ribozyme variant] | 0.853 | 0.88 | 0.559 | 0.463 | 0.822 | 0.861 |
| AUUACCCUGGUCAUCGACUAA [Fam2.1 aminoacylation ribozyme variant] | 0.975 | 0.759 | 0.642 | 0.924 | 0.782 | 0.713 |
| AUUACCCUGGUCAUCGAGAGC [Fam2.1 aminoacylation ribozyme variant] | 0.791 | 0.723 | 1.03 | 0.61 | 0.834 | 0.723 |
| AUUACCCUGGUCAUCGAGUAU [Fam2.1 aminoacylation ribozyme variant] | 23.6 | 8 | 97.7 | 24.4 | 9.24 | 26.9 |
| AUUACCCUGGUCAUCGAGUCC [Fam2.1 aminoacylation ribozyme variant] | 0.824 | 0.721 | 0.596 | 0.613 | 0.772 | 0.77 |
| AUUACCCUGGUCAUCGAUUGA [Fam2.1 aminoacylation ribozyme variant] | 1.02 | 0.93 | 1.01 | 0.85 | 0.997 | 0.987 |
| AUUACCCUGGUCAUCGUGUCA [Fam2.1 aminoacylation ribozyme variant] | 0.607 | 0.67 | 0.482 | 1.04 | 0.835 | 0.742 |
| AUUACCCUGGUCAUCGUGUGG [Fam2.1 aminoacylation ribozyme variant] | 0.851 | 0.742 | 2.9 | 0.556 | 0.947 | 0.727 |
